Results are given in words; binding and its absence hold for the method and conditions named. For some of these results: In cells and extracts the contact can be indirect. Some entries that bind do so weakly or less than the wild type.
What was measured:
[1] = target: T1, SNRNP200 N-terminal helicase cassette (SNRNP200^NC) (human) (UniProt O75643); assay: SEC; analytical SEC, Superdex 200 increase 3.2/300, 20 mM Tris-HCl pH 8.0, 200 mM NaCl, 1 mM DTT; 75 μg SNRNP200 variant with 1.5-fold molar excess of a GST-TSSC4 variant, or 30 μg GST-TSSC4 variant with equimolar PRPF8^Jab1ΔC, in 50 μl, 10 min on ice; fractions by SDS-PAGE; both purified
T1 sequence: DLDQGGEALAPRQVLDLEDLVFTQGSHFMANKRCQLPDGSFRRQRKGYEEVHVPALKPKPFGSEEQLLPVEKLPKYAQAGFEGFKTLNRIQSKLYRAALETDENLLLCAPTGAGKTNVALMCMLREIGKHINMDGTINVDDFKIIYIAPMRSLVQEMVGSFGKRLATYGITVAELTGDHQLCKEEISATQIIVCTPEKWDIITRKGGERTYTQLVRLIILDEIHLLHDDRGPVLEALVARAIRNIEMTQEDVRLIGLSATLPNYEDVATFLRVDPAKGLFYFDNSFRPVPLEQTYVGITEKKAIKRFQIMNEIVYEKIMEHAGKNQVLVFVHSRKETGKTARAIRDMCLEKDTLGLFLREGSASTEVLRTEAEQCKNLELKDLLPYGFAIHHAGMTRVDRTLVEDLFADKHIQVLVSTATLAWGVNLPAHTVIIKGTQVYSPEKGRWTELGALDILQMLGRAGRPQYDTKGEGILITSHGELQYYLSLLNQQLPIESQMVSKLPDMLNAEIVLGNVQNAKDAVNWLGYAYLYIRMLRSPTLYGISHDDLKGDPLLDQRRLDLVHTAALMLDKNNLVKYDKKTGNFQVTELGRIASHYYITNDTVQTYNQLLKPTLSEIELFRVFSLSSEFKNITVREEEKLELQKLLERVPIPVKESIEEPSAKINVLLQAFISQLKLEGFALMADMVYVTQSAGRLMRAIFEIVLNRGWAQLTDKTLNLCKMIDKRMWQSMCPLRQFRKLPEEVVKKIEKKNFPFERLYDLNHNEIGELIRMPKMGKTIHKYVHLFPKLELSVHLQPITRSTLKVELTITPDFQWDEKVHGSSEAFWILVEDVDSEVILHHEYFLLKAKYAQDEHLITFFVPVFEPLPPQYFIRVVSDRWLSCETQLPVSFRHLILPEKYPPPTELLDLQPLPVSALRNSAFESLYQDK

Protein sequences, listed by entry. Tags and fused reporters are not part of them.
UniProt Q9Y5U2: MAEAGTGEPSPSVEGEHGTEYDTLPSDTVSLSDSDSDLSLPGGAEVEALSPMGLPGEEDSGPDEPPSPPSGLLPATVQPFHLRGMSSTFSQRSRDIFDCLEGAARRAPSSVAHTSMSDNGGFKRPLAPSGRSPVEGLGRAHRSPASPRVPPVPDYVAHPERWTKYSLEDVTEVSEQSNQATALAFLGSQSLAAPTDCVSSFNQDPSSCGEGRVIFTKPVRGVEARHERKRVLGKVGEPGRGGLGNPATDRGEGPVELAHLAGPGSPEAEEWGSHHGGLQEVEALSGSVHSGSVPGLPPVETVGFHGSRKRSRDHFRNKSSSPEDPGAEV

[2] = target: T2, PRPF6^237–941 (human) (UniProt O94906); assay: as above
T2 sequence: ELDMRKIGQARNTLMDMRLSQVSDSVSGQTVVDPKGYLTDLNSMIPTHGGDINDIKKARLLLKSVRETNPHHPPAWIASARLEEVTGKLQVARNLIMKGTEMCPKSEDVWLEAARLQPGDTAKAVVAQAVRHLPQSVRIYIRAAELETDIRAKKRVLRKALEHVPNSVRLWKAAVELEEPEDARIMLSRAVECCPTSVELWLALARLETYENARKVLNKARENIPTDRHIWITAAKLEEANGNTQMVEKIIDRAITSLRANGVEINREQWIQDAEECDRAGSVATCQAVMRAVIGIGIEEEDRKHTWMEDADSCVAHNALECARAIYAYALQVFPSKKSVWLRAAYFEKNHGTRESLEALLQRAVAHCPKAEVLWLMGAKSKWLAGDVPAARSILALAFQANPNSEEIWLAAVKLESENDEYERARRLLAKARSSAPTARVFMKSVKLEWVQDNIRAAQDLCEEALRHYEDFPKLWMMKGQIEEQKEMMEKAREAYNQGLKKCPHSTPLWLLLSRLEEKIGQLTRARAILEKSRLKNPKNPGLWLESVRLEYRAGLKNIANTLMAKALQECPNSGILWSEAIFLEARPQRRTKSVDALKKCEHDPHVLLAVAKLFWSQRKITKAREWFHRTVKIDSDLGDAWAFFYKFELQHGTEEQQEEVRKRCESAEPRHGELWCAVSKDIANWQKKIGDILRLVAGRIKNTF

[3] = target: T3, EFTUD2^115–580 (human) (UniProt Q15029); assay: as above
T3 sequence: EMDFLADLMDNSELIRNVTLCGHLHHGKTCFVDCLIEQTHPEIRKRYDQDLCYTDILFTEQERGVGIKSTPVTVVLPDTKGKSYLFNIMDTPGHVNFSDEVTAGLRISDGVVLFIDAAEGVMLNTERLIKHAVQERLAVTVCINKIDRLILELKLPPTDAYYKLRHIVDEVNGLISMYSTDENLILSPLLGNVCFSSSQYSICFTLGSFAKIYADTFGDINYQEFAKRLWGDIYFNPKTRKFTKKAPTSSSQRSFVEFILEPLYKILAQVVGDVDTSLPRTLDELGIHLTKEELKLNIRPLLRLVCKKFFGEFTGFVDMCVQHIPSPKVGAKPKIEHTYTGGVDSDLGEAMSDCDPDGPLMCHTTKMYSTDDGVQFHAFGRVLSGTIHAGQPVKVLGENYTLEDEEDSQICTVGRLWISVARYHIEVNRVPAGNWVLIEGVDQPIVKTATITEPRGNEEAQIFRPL

[4] = target: C-terminally Flag-tagged TSSC4 (TSSC4^wt-Flag), transiently expressed (human) (UniProt Q9Y5U2); assay: co-IP; Flag-IP (Flag M2 affinity gel) from 100 μg nuclear extract of transiently transfected HEK293 cells, RIPA buffer with 100 mM NaCl, 2% BSA, overnight 4°C; Western blot with anti-SNRNP200 serum

“His6-GST-TSSC4 (wild type) (from UniProt Q9Y5U2 1-329)” was tested, and the binding [1] was “no binding”, the binding [2] was “no binding” and the binding [3] was “no binding”.

With “SNRNP200 (endogenous) (from UniProt O75643 1-2136) (enzyme)” the binding [4] was “binds”.
